Measured values published in publication PMC8782181.

Protein sequences, listed by entry. Tags and fused reporters are not part of them.
UniProt P53297: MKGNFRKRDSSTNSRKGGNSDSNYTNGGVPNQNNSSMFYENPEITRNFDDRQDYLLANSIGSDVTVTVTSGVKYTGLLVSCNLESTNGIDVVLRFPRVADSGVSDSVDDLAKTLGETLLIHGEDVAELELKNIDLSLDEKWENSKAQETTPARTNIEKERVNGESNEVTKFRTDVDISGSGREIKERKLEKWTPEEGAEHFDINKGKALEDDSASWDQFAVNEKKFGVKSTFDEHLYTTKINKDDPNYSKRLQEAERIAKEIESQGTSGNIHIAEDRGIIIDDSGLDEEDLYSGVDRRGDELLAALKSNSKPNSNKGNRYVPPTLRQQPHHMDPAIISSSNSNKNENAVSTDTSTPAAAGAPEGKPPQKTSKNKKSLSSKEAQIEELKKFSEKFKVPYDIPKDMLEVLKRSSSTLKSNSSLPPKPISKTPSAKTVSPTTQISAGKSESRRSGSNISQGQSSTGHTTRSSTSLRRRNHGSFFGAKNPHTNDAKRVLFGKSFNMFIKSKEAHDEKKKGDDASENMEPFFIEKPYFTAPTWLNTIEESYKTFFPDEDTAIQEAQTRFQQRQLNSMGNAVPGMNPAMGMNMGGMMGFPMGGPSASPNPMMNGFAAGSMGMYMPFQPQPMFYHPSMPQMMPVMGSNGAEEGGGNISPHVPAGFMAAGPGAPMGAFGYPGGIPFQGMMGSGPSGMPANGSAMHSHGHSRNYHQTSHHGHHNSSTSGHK

Target: Pbp1-myc (S. cerevisiae) (UniProt P53297)
Experiment: affinity purification with mass spectrometry; cells unstressed or glucose-depleted (10 min for Dcp1-myc, 60 min for Pbp1-myc), cross-linked with 0.8% formaldehyde; 20,000 g pellet of the lysate in Blob100 buffer (20 mM Tris-HCl pH 8, 100 mM NaCl, 1 mM MgCl2, 0.5% NP40) on anti-c-Myc magnetic beads, eluted with Myc peptide; label-free LC-MS/MS; hits are the proteins that cluster (Mfuzz) with the tagged bait across IP, pellet, supernatant, total and unbound fractions

Row | Binder | binding
1 | Rrb1 (protein, UniProt Q04225 1-511) MSKRSIEVNEEQDRVVSAKTESHSVPAIPASEEQDAPKNDLEEQLSDEFDSDGEIIEIDGDDEINDEDDLRKKQEEAETLVQKDQSEGNKEKIQELYLPHMSRPLGPDEVLEADPTVYEMLHNVNMPWPCLTLDVIPDTLGSERRNYPQSILLTTATQSSRKKENELMVLALSNLAKTLLKDDNEGEDDEEDDEDDVDPVIENENIPLRDTTNRLKVSPFAISNQEVLTATMSENGDVYIYNLAPQSKAFSTPGYQIPKSAKRPIHTVKNHGNVEGYGLDWSPLIKTGALLSGDCSGQIYFTQRHTSRWVTDKQPFTVSNNKSIEDIQWSRTESTVFATAGCDGYIRIWDTRSKKHKPAISVKASNTDVNVISWSDKIGYLLASGDDNGTWGVWDLRQFTPSNADAVQPVAQYDFHKGAITSIAFNPLDESIVAVGSEDNTVTLWDLSVEADDEEIKQQAAETKELQEIPPQLLFVHWQKEVKDVKWHKQIPGCLVSTGTDGLNVWKTISV | binds
2 | Ssh1 (protein, UniProt P38353 1-490) MSGFRLIDIVKPILPILPEVELPFEKLPFDDKIVYTIFAGLIYLFAQFPLVGLPKATTPNVNDPIYFLRGVFGCEPRTLLEFGLFPNISSGLILQLLAGLKVIKVNFKIQSDRELFQSLTKVFAIVQYVILTNIFIFAGYFGDDLSVVQIGLINFQLVGAGIFTTLLAEVIDKGFGFSSGAMIINTVVIATNLVADTFGVSQIKVGEDDQTEAQGALINLIQGLRSKHKTFIGGIISAFNRDYLPNLTTTIIVLAIAIIVCYLQSVRVELPIRSTRARGTNNVYPIKLLYTGCLSVLFSYTILFYIHIFAFVLIQLVAKNEPTHIICKIMGHYENANNLLAVPTFPLSLLAPPTSFFKGVTQQPLTFITYSAFILVTGIWFADKWQAISGSSARDVALEFKDQGITLMGRREQNVAKELNKVIPIAAVTGASVLSLITVIGESLGLKGKAAGIVVGIAGGFSLLEVITIEYQQSGGQSALNQVLGVPGAM | binds
3 | Tat1 (protein, UniProt P38085 1-619) MDDSVSFIAKEASPAQYSHSLHERTHSEKQKRDFTITEKQDEVSGQTAEPRRTDSKSILQRKCKEFFDSFKRQLPPDRNSELESQEKNNLTKSIKSRHLVMISLGTGIGTGLLVGNGQVLGTAGPAGLVLGYGIASIMLYCIIQAAGELGLCYAGLTGNYTRYPSILVDPSLGFAVSVVYTIQWLTVLPLQLVTAAMTVKYWTSVNADIFVAVVFVFVIIINLFGSRGYAEAEFIFNSCKILMVIGFVILAIIINCGGAGDRRYIGAEYWHNPGPFAHGFKGVCTVFCYAAFSYGGIEVLLLSAAEQENPTKSIPNACKKVVYRILLIYMLTTILVCFLVPYNSDELLGSSDSSGSHASPFVIAVASHGVKVVPHFINAVILISVISVANSSLYSGPRLLLSLAEQGVLPKCLAYVDRNGRPLLCFFVSLVFGCIGFVATSDAEEQVFTWLLAISSLSQLFIWMSMSLSHIRFRDAMAKQGRSMNEVGYKAQTGYWGSWLAVLIAIFFLVCQFWVAIAPVNEHGKLNVKVFFQNYLAMPIVLFAYFGHKIYFKSWSFWIPAEKIDLDSHRNIFVSPSLTEIDKVDDNDDLKEYENSESSENPNSSRSRKFFKRMTNFWC | binds
4 | Utp22 (protein, UniProt P53254 1-1237) MATSVKRKASETSDQNIVKVQKKHSTQDSTTDNGSKENDHSSQAINERTVPEQENDESDTSPESNEVATNTAATRHNGKVTATESYDIHIARETAELFKSNIFKLQIDELLEQVKLKQKHVLKVEKFLHKLYDILQEIPDWEEKSLAEVDSFFKNKIVSVPFVDPKPIPQNTNYKFNYKKPDISLIGSFALKAGIYQPNGSSIDTLLTMPKELFEKKDFLNFRCLHKRSVYLAYLTHHLLILLKKDKLDSFLQLEYSYFDNDPLLPILRISCSKPTGDSLSDYNFYKTRFSINLLIGFPYKVFEPKKLLPNRNCIRIAQESKEQSLPATPLYNFSVLSSSTHENYLKYLYKTKKQTESFVEATVLGRLWLQQRGFSSNMSHSGSLGGFGTFEFTILMAALLNGGGINSNKILLHGFSSYQLFKGVIKYLATMDLCHDGHLQFHSNPENSSSSPASKYIDEGFQTPTLFDKSTKVNILTKMTVSSYQILKEYAGETLRMLNNVVQDQFSNIFLTNISRFDNLKYDLCYDVQLPLGKYNNLETSLAATFGSMERVKFITLENFLAHKITNVARYALGDRIKYIQIEMVGQKSDFPITKRKVYSNTGGNHFNFDFVRVKLIVNPSECDKLVTKGPAHSETMSTEAAVFKNFWGIKSSLRRFKDGSITHCCVWSTSSSEPIISSIVNFALQKHVSKKAQISNETIKKFHNFLPLPNLPSSAKTSVLNLSSFFNLKKSFDDLYKIIFQMKLPLSVKSILPVGSAFRYTSLCQPVPFAYSDPDFFQDVILEFETSPKWPDEITSLEKAKTAFLLKIQEELSANSSTYRSFFSRDESIPYNLEIVTLNILTPEGYGFKFRVLTERDEILYLRAIANARNELKPELEATFLKFTAKYLASVRHTRTLENISHSYQFYSPVVRLFKRWLDTHLLLGHITDELAELIAIKPFVDPAPYFIPGSLENGFLKVLKFISQWNWKDDPLILDLVKPEDDIRDTFETSIGAGSELDSKTMKKLSERLTLAQYKGIQMNFTNLRNSDPNGTHLQFFVASKNDPSGILYSSGIPLPIATRLTALAKVAVNLLQTHGLNQQTINLLFTPGLKDYDFVVDLRTPIGLKSSCGILSATEFKNITNDQAPSNFPENLNDLSEKMDPTYQLVKYLNLKYKNSLILSSRKYIGVNGGEKGDKNVITGLIKPLFKGAHKFRVNLDCNVKPVDDENVILNKEAIFHEIAAFGNDMVINFETD | binds
5 | Bfr1 (protein, UniProt P38934 1-470) MSSQQHKFKRPDVSVRDKKLDTLNVQLKKIDTEIGLIRKQIDQHQVNDTTQQERKKLQDKNKEIIKIQADLKTRRSNIHDSIKQLDAQIKRKNNQIEEKLGKKAKFSSTAEAKQRINEIEESIASGDLSLVQEKLLVKEMQSLNKLIKDLVNIEPIRKSVDADKAKINQLKEELNGLNPKDVSNQFEENQQKLNDIHSKTQGVYDKRQTLFNKRAALYKKRDELYSQIRQIRADFDNEFKSFRAKLDKERLKREEEQRLSKLLEQKDVDMGKLQEKLTHAKIPAFTYEIGAIENSLLVLDPTYVKPKKNILPDLSSNALETKPARKVVADDLVLVTPKKDDFVNVAPSKSKKYKKKNQQKNTENEQPASIFNKVDGKFTLEPTLIATLAELDVTVPINSDDVKITVEQLKKKHEELLSKQEEQTKQNIESVEKEIEKLNLDYSNKEQQVKKELEEKRLKEQEESEKDKEN | binds
6 | Bre5 (protein, UniProt P53741 1-515) MGVTVQDICFAFLQNYYERMRTDPSKLAYFYASTAELTHTNYQSKSTNEKDDVLPTVKVTGRENINKFFSRNDAKVRSLKLKLDTIDFQYTGHLHKSILIMATGEMFWTGTPVYKFCQTFILLPSSNGSTFDITNDIIRFISNSFKPYVLTDASLSQSNEENSVSAVEEDKIRHESGVEKEKEKEKSPEISKPKAKKETVKDTTAPTESSTQEKPIVDHSQPRAIPVTKESKIHTETVPSSTKGNHKQDEVSTEELGNVTKLNEKSHKAEKKAAPIKTKEGSVEAINAVNNSSLPNGKEVSDEKPVPGGVKEAETEIKPIEPQVSDAKESGNNASTPSSSPEPVANPPKMTWASKLMNENSDRISKNNTTVEYIRPETLPKKPTERKFEMGNRRDNASANSKNKKKPVFSTVNKDGFYPIYIRGTNGLREEKLRSALEKEFGKVMRITAADNFAVVDFETQKSQIDALEKKKKSIDGIEVCLERKTVKKPTSNNPPGIFTNGTRSHRKQPLKRKD | binds
7 | Cop1 (protein, UniProt P53622 1-1201) MKMLTKFESKSTRAKGIAFHPSRPWVLVALFSSTIQLWDYRMGTLLHRFEDHEGPVRGLDFHPTQPIFVSAGDDYTIKVWSLDTNKCLYTLTGHLDYVRTVFFHRELPWIISASDDQTIRIWNWQNRKEIACLTGHNHFVMCAQFHPTDDLIVSASLDETIRIWDISGLRKRHSAPGTSSFEEQMSAQQNLLDGSLGDCVVKFILEGHTRGVNWASFHPTLPLIVSGSDDRQVKLWRMSATKAWEVDTCRGHTNNVDSVIFHPHQNLIISVGEDKTLRVWDLDKRTPVKQFKRENDRFWLIAAHPHINLFGAAHDSGIMVFKLDRERPCSFIHQNQLFFVNAEKQIQSFNFQKRVASLPYASLKGIGQPWDAFRSISYNPSQHSVLVNEANGKFALVILPKQPVGAVEPTSVTQDTGNFATFVGRNRFVVYNKNTESVEVRSLENKVTRNIKVEETVRTIVAAGPGSVLVIHPREVILYDVQQGKKVSQLAVKNVKYVSWSLDGQYVALMSKHTITLATKKLELINSMHETIRIKSAAWDETGVLIYSTLNHIRYSLLNGDRGIIKTLEKTLYITKVQGKLVYCLNREGEIEILTIDPTEYRFKKALVNKNFPEVLRLIKDSNLVGQNIISYLQKSGYPEIALQFVQDPHIRFDLALEYGNLDVALDEAKKLNDSSTWERLIQEALAQGNASLAEMIYQTQHSFDKLSFLYLVTGDVNKLSKMQNIAQTREDFGSMLLNTFYNNSTKERSSIFAEGGSLPLAYAVAKANGDEAAASAFLEQAEVDEQDVTLPDQMDASNFVQRPVISKPLEKWPLKEAELSYFEKAVLGQIDDLTIDDETPAVNTTQEQEEPLGEENFNDEDIGEDEGAWDLGDEDLDVGEELPEEVEQGEITSPAQEVETAIWIKNSKLPAVLVAAGAFDAAVQALSKQVGVVKLEPLKKYFTNIYEGCRTYIPSTPCELPAQLGYVRAYDDTVSEDQILPYVPGLDVVNEKMNEGYKNFKLNKPDIAIECFREAIYRITLLMVDDAEDEKLAHKILETAREYILGLSIELERRSLKEGNTVRMLELAAYFTKAKLSPIHRTNALQVAMSQHFKHKNFLQASYFAGEFLKIISSGPRAEQARKIKNKADSMASDAIPIDFDPYAKFDICAATYKPIYEDTPSVSDPLTGSKYVITEKDKIDRIAMISKIGAPASGLRIRV | binds
8 | Coy1 (protein, UniProt P34237 1-679) MDTSVYSHALDIWAKADLTNLQRELDADVIEIKDKETLSLNSRKSLATETKKFKKLEPEEKLNNVNKIIKQYQREIDNLTQRSKFSEKVLFDVYEKLSEAPDPQPLLQSSLEKLGKIDDSKELKEKISYLEDKLAKYADYETLKSRLLDLEQSSAKTLAKRLTAKTQEINSTWEEKGRNWKEREADLLKQLTNVQEQNKALEAKISKNIDIEGNGNEDGDQENNQKEVSTRIAEYNLVTQELETTQARIYQLEKRNEELSGALAKATSEAEKETELHAKELKLNQLESENALLSASYEQERKSTSHAINELKEQLNSVVAESESYKSELETVRRKLNNYSDYNKIKEELSALKKIEFGVNEDDSDNDIRSEDKNDNTFESSLLSANKKLQATLAEYRSKSTAQEEERNELKKSVDQLKQQIATLKEANEKLETDLEKVENVSPHFNETASMMSGVTRQMNNRTSHKMSPTSSIIGIPEDGELSGNQSTILPIVTKQRDRFRSRNMDLEKQLRQGNSEKGKLKLEISKLKGDNTKLYERIRYLQSYNNNNAPVNQSTERIDVESQYSRVYDESLHPMANFRQNELNHYKNKKLSALEKLFSSFAKVILQNKMTRMVFLFYCIGLHGLVFMMSMYVINISGYMTPEVGIVQSAKSSSNLNGGLGGAEKVAAGVGSVHGINR | binds

Results are given in words; binding and its absence hold for the method and conditions named. Binding seen in cells or lysates may run through a third protein. A yes stands for co-enrichment or nearness to the bait. Other partners may have been found.
